Laboratory results published in publication PMC9375228.
No constants are given. Whether binding was seen depends on the method and setting. In cells and extracts the contact can be indirect. Some entries that bind do so weakly or less than the wild type.

Sequences of proteins named here, by UniProt entry; tags and fusion partners are left off.
UniProt Q9VWN9: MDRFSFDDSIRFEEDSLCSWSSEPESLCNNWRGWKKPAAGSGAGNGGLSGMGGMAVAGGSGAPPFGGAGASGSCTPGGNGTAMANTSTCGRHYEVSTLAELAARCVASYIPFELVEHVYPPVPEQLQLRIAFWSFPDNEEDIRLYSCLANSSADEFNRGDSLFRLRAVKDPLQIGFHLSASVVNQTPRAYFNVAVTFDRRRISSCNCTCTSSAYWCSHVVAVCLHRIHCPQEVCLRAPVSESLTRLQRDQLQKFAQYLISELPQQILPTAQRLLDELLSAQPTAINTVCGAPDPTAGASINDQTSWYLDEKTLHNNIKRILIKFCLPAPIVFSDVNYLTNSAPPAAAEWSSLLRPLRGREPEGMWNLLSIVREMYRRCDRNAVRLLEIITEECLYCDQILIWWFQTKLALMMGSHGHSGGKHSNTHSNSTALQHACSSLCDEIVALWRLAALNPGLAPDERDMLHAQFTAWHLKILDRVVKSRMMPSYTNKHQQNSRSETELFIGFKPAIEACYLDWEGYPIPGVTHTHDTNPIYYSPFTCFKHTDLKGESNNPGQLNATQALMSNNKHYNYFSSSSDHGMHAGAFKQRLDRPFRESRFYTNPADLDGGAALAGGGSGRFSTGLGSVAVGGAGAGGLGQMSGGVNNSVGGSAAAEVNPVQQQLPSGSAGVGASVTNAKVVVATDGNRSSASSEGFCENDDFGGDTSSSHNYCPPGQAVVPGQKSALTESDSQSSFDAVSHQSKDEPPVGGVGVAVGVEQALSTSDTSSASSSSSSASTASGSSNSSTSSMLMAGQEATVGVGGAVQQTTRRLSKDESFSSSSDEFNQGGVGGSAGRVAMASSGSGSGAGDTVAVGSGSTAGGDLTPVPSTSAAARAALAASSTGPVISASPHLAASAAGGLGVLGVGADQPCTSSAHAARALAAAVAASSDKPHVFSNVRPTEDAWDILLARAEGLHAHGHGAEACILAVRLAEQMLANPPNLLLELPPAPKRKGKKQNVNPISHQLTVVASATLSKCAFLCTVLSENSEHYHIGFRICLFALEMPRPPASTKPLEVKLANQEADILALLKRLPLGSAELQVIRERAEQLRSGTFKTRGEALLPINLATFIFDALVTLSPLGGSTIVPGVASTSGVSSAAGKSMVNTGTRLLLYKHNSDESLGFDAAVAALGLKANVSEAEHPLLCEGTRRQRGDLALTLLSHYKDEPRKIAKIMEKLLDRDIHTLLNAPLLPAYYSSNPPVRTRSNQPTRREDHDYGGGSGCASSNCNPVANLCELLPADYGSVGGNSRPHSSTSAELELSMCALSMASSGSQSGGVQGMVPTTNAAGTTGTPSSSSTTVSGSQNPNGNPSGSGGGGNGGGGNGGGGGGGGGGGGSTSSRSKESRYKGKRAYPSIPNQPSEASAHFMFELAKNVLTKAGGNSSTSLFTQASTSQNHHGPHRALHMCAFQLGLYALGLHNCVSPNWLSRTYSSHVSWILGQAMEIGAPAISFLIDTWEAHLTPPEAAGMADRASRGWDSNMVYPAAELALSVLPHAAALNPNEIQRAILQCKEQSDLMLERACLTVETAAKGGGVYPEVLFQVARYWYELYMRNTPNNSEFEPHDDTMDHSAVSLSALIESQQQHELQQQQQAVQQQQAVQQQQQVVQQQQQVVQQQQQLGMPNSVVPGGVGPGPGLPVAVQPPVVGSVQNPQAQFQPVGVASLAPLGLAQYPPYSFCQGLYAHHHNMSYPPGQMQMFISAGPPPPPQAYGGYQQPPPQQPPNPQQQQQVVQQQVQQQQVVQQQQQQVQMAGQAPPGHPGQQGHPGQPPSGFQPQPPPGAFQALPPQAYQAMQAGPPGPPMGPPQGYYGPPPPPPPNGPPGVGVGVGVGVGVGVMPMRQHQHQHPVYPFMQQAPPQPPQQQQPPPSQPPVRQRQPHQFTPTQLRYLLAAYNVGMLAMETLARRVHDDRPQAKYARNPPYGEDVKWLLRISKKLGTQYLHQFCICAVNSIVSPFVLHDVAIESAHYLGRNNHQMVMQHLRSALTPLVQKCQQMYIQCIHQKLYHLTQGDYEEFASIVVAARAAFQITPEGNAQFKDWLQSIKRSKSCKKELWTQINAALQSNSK

B1: Diaphanous (protein, UniProt P48608 1-1091)
chain: MSRHEKTKSTGGGLLDSLFGRPSKSKGGTISSGTLAHGGRPVSADNYVVPGVEDFEQYIQQLSVAELDAKFLEIIEDMNIPKDKREPLLAKSKEERQKMIMWHLKGKNSLERSANSRFEKPIDYVEYLQNGEHSTHKVYQCVESLRVALTSNPISWIKEFGVAGIGTIEKLLARSKNNASYEKIEFEAIRCLKAIMNNTWGLNVVLNPDQHSVVLLLAQSLDPRKPQTMCEALKLLASFCIVYERNGYEKVLRAITTIAATSFKASERFRPIVDALFASDQQDPKRDLACHSLIFINTLTNTPTDLNFRLHLRCEIMRMGLYDRLDEFTKIVEASNNENLQQHFKIFNEIREDDFEEFVQRFDNVTFNMDDATDCFDVLKNLVTDTTSEPYFLSILQHLLYIRDDFYFRPAYYQLIEECISQIVFHKGYCDPNFENRNFNIDTSLLLDDIVEKAKAKESKRSEEYEKKIEQLESAKQEAEAKAAHLEEKVKLMEANGVAAPSPNKLPKVNIPMPPPPPGGGGAPPPPPPPMPGRAGGGPPPPPPPPMPGRAGGPPPPPPPPGMGGPPPPPMPGMMRPGGGPPPPPMMMGPMVPVLPHGLKPKKKWDVKNPMKRANWKAIVPAKMSDKAFWVKCQEDKLAQDDFLAELAVKFSSKPVKKEQKDAVDKPTTLTKKNVDLRVLDSKTAQNLAIMLGGSLKHLSYEQIKICLLRCDTDILSSNILQQLIQYLPPPEHLKRLQEIKAKGEPLPPIEQFAATIGEIKRLSPRLHNLNFKLTYADMVQDIKPDIVAGTAACEEIRNSKKFSKILELILLLGNYMNSGSKNEAAFGFEISYLTKLSNTKDADNKQTLLHYLADLVEKKFPDALNFYDDLSHVNKASRVNMDAIQKAMRQMNSAVKNLETDLQNNKVPQCDDDKFSEVMGKFAEECRQQVDVLGKMQLQMEKLYKDLSEYYAFDPSKYTMEEFFADIKTFKDAFQAAHNDNVRVREELEKKRRLQEAREQSAREQQERQQRKKAVVDMDAPQTQEGVMDSLLEALQTGSAFGQRNRQARRQRPAGAERRAQLSRSRSRTRVTNGQLMTREMILNEVLGSA
B2: Chic/Profilin (protein, UniProt P25843 1-126)
chain: MSWQDYVDNQLLASQCVTKACIAGHDGNIWAQSSGFEVTKEELSKLISGFDQQDGLTSNGVTLAGQRYIYLSGTDRVVRAKLGRSGVHCMKTTQAVIVSIYEDPVQPQQAASVVEKLGDYLITCGY

Target: HA-Pldo^WT (Pelado, CG34401) (Drosophila) (UniProt Q9VWN9)
Test: co-IP; lysates of Drosophila S2 (S2R+) cells transfected with HA-Pldo^WT; immunoprecipitated with anti-HA at 4°C overnight, Agarose-A beads, 5 washes; Western blot

Row | Binder | binding
1 | B1 | binds
2 | B2 | binds
